The subject of the data set is thrombin (human plasma, Sigma-Aldrich) (Homo sapiens). As to the kind of experiment: cited. The note with it: SICS: thrombin in 1 M KCl (or 150 mM KCl), pH 7.5, 30 min incubation, 300 mV; gel: 16% Tris-Glycine; temperature not stated; commercial protein; folded or branched DNA.

The exact form of at least one protein or probe is not confirmed.

Consider “AGTCCGTGGTAGGGCAGGTTGGGGTGACT [TBA 2 (29-mer)]”, for which the binding result is on record as “binds”.

For the origin of these results see paper PMC11984302.
